Source: patent publication US9365830B2, “Agents and methods for inhibiting human pluripotent stem cell growth” (VIACYTE, INC., priority 2010, dated 2016)
“Also recorded” adds a separate entry of the source. At least one compound was matched to its structure with a doubt left.

How the values were obtained:
Format in all cases: cell-based, human
[1] = tested on: differentiating Stage 1 cultures (definitive endoderm); test: Secondary screen on differentiating Stage 1 cultures in 6-well trays; settings: compounds added to differentiating Stage 1 cultures
Source text: The impedance assay on the hESCs using the compounds in Table 4 above gave greater than twenty (20) hits. However, the ideal candidate compound of the present invention should not only be inhibitory or cytotoxic to human pluripotent stem cells, such as hESCs or hIPSCs, but should at the same time have no effect on cell viability of differentiated or differentiating cell populations including Stage 1, 2, 3, 4 and 5 type cells cultures (definitive endoderm, foregut endoderm, posterior foregut, pancreatic endoderm and endocrine cells, respectively). […] Approximately 3×10^4 hES cells were plated per well and grown for 24 hrs in DC-HAIF defined medium (i.e. StemPro® hESC SFM medium (Life Technologies, Carlsbad, Calif.). Stage 1 or definitive endoderm differentiation was then induced by changing the medium and culturing in RPMI, 100 ng/mL Activin A, and 10 ng/mL of FGF2. […] of GSK-3 beta Inhibitor 15 (Calbiochem #361558) as added to the culture for the first 24 hours of differentiation only. 10 μM of each of the candidate compounds were added about 48 hours or 2 days after differentiation was induced (see FIGS. 3 C & D, large arrowhead), and the cells were cultured for an additional 2 days.
Secondary Screen with Selected Compounds. […] Only 9 of the 10 compounds in Table 5 were tested because the 10th was not available in sufficient quantity at the time the assays were performed. […]

[2] = tested on: adherent Stage 1 cell cultures of BG02; test: Q-PCR marker gene expression, adherent Stage 1 cultures of BG02
Source text: FIGS. 4A-4G are bar graphs showing the relative gene expression levels of OCT4 (FIG. 4A), NANOG (FIG. 4B), FOXA2 (FIG. 4C), SOX17 (FIG. 4D), SOX7 (FIG. 4E), PAX6 (FIG. 4F) and ZIC1 (FIG. 4G) BG02 with treatment of candidate selective cytotoxic agents from the LOPAC1280™ sublibrary (Table 4) to adherent Stage 1 cell cultures of BG02. Expression levels were normalized using the geometric mean of three housekeeping genes, GUSB, CYCG and TBP. The graphs depict fold regulation compared to the hESC sample. The large arrow heads indicate time of the drug treatment. D=DMSO (control); C=Chelerythrine Chloride; A=AG490; B=BTO-1; De=Dephostatin; S=SU6656.
Screen for Effects on Stages 1-5 Differentiation. To further determine whether these 5 candidate compounds added at Stage 1 affected other differentiated cell types (e.g. Stages 2-5: foregut endoderm, posterior foregut endoderm, pancreatic endoderm and endocrine precursor cells, respectively), hES were differentiated in the presence or absence of compounds, and RNA samples were taken at various stages for gene expression analysis by Q-PCR.
Gene expression levels were plotted relative to a DMSO treated control at the end of Stage 1 (FIG. 4), and relative to undifferentiated hESC aggregates (FIGS. 5 and 6). See “Control” in FIGS. 4, 5 & 6. […]

[3] = tested on: hESC suspension aggregate cultures, Stages 1-4 (pancreatic endoderm); test: Q-PCR marker gene expression, suspension aggregate cultures differentiated through Stages 1-4
Source text: FIGS. 5A-5M. are bar graphs showing the relative gene expression levels of markers expressed in pluripotent cells or in cells of pancreatic lineage: OCT4 (FIG. 5A), MIXL (FIG. 5B), EOMES (FIG. 5C), CXCR4 (FIG. 5D), SOX17 (FIG. 5E), HNF1B (FIG. 5F), HNF4A (FIG. 5G), PDX1 (FIG. 5H), PTF1A (FIG. 5I), NKX2.2. (FIG. 5J), NGN3 (FIG. 5K), NKX6.1 (FIG. 5L) and PAX4 (FIG. 5M) with treatment of candidate selective cytotoxic agents from the LOPAC1280™ sublibrary (Table 4) to suspension aggregate cell cultures at Stages 1-4. Expression levels are normalized to the average expression levels of housekeeping genes. The graphs depict fold regulation compared to hESC sample. Ch.Cl=chelerythrine chloride; Deph.=dephostatin; AG=AG 490; SU=SU6656.
FIGS. 6A-6F are bar graphs showing the relative gene expression levels of markers of non-pancreatic lineage cells: SOX1 (FIG. 6A; e.g., at least observed in extraembryonic and neural cellss), ZIC1 (FIG. 6B; e.g., at least observed in early neural cells), PAX6 (FIG. 6C; e.g., at least observed in neural ectoderm cells), SOX7 (FIG. 6D; e.g., at least observed in extraembryonic cells), AFP (FIG. 6E; e.g., at least observed in liver cell and extraembryonic cells) and CDX2 (FIG. 6F; e.g., at least observed in extraembryonic cells) in compound-treated differentiations.
Effects of Candidate Inhibitor/Cytotoxic Agents in Suspension Aggregate Culture. […]

[4] = tested on: OCT4-positive cells in Stage 1 differentiations of hES cells; test: Plating assay for depletion of OCT4-positive cells in Stage 1 suspension aggregates, OCT4 immunostaining
Description: Human ES cell suspension aggregates were formed in rotational culture as described previously and differentiated through Stage 1 (definitive endoderm). About 20-30 aggregates were then plated per well in 4-well tissue culture dishes coated with MATRIGEL· diluted 1:200, and cultured for 24 hours in hESC medium (DMEM/F12, 10% XF-KSR, 10 ng/mL Activin A and 10 ng/mL Heregulin). This approach was intended to increase the contrast in OCT4 expression between undifferentiated hESCs and cells committed to differentiation. […] Stated in another way, mixed population cell cultures in hESC medium would potentially support expansion/proliferation of residual undifferentiated (hESCs), thereby show increased OCT4 gene expression, as compared to cells committed to differentiation, which would have decreased of OCT4 gene expression. Plated aggregates were immunostained for OCT4 protein and counterstained with DAPI, a nuclear stain (FIG. 12). The cell aggregates that were plated had flattened and spread out within a 24-hour period; while the centers of the aggregates were still domed. […] Brightly staining OCT4-positive cells were easily identified and distinguishable from the majority of OCT4 negative cells. OCT4-positive cells were generally found in clusters and most often within the domed area of a plated aggregate. […] Smaller aggregates residing in a larger aggregate may occur as a result of the initial stages of rotational culture, or the aggregation process, during which small clusters (primary aggregates) form initially. Aggregation of two or more primary aggregates likely leads to the formation of larger secondary aggregates, which can be 100-150 μm in diameter. Thus, it is possible that any single clusters of OCT4-positive cells exist at the center of a primary aggregate and resist differentiation. Such clusters would remain substantially undifferentiated and stain OCT4-positive. One hypothesis is that primary aggregates are specified to differentiation relative to their positioning in primary and secondary aggregates. […]

SMILES: COc1ccc2c(c[n+](C)c3c4cc5c(cc4ccc23)OCO5)c1OC [Chelerythrine chloride]
- Viability of Definitive Endoderm [1]: capable of growth and proliferation; also recorded: Viable
- SOX17 gene expression ([2]; end of Stage 1, compared to DMSO control (FIG. 4D)): increase
- OCT4 and NANOG gene expression ([2]; end of Stage 1, compared to DMSO control (FIGS. 4A, 4B)): subtle relative decrease
- differentiation of non-pancreatic lineage cells, or “off-target” cells ([3]; FIGS. 6A-6F): do not promote
- PDX1 and NKX6.1 gene expression ([3]; Stages 2, 3 and 4, compared to the Controls): increased
- number of OCT4-positive cells ([4]; 10 μm chelerythrine chloride, 24 hours after plating): substantially fewer
- proliferation of OCT4 positive cells ([4]; 10 μm chelerythrine chloride, about 72 hours after plating, vs control cultures): proliferated, but clearly below the extent observed for OCT4-positive cells in the control cultures
- intensity for OCT4 staining ([4]; treated day 1 to 2 of Stage 1 at EC50 concentration, plated 24 hours in hESC medium, vs untreated or DMSO): significantly decreased
